# From the supplement of paper PMC8728848
# The list shows a part of the results.
# B1: HopZSSI-T (Helicobacter pylori), B5Z6D0 (protein)
# chain: MGSSHHHHHHSSGLVPRGSHMENLYFQGEDNGFFISAGYQIGEAAQMVKNTGELKKLSDTYENLSNLLTNFNNLNQAVTNASSPSEINAAIDNLKANTQGLTGEKTNSPAYQAVYLALNAAVGLWNVIAYNVQCGPGNSSQQSVTFEGQPGHNSSSINCNLTGYNNGVSGPLSIDNFKQLNQAYQVLQQALKQGVPVLNNTNQKIEVKVTTQTNGQSSKETTTTTTTNDAQTLLQEASKMIDVLTTNCPWVNHNPGQNGGAPWGLIRQECVSGFATEFSAVTSMIKNAQEIVTQAQSLNANQNNQNAPQDFNPYTSADRAFAQNMLNHAQAQAKILELADQMKKDLNTIPSQFITNYLAACRIDGTTPSQGVTNNTWGAGCAYVEETITALNNSLAHFGTQAEQIKQSELLARTILDFRGSLSTLNSTYNSITTTASNTPNSPFLKNLISQSTNPNNPGGLQAVYQVNQSAYSQLLSATQELGHNPFRRIGLISSQT
# How the values were obtained:
# Assay in all cases: glycan array binding signal (z-score within array); higher = stronger binding
# Settings in all cases: glycan notation: IUPAC condensed, linker removed
# [1] = target: Neu5Ac(a2-6)Gal(b1-4)GlcNAc(b1-3)Gal(b1-4)GlcNAc(b1-3)Gal(b1-4)GlcNAc(b1-2)Man(a1-3)[Neu5Ac(a2-6)Gal(b1-4)GlcNAc(b1-3)Gal(b1-4)GlcNAc(b1-3)Gal(b1-4)GlcNAc(b1-2)Man(a1-6)]GalNAc
# How it was run: (§1)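 Arrays were curated from the Consortium for Functional Glycomics database, 3228 in total, and kept only where the protein sequence was available. Binding is expressed as a within-array Z-score. This score was averaged across arrays of the same protein sequence at different concentrations or buffers and across linkers, and negative values can be read as non-binding.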
# [2] = target: Neu5Ac(a2-6)Gal(b1-4)GlcNAc(b1-3)Gal(b1-4)GlcNAc(b1-3)GalNAc
# How it was run: as §1
# [3] = target: Neu5Ac(a2-6)Gal(b1-4)GlcNAc(b1-3)Gal(b1-4)GlcNAc(b1-3)[Neu5Ac(a2-6)Gal(b1-4)GlcNAc(b1-3)Gal(b1-4)GlcNAc(b1-6)]GalNAc
# How it was run: as §1
# [4] = target: Neu5Ac(a2-6)Gal(b1-4)GlcNAc(b1-3)Gal(b1-4)GlcNAc(b1-6)[Gal(b1-3)]GalNAc
# How it was run: as §1
# [5] = target: Neu5Ac(a2-6)Gal(b1-4)GlcNAc(b1-3)Gal(b1-4)[Fuc(a1-3)]GlcNAc(b1-3)Gal(b1-4)[Fuc(a1-3)]GlcNAc
# How it was run: as §1
# [6] = target: Neu5Ac(a2-6)Gal(b1-4)GlcNAc(b1-3)GalNAc
# How it was run: as §1
# [7] = target: Neu5Ac(a2-6)Gal(b1-4)GlcNAc(b1-3)[Neu5Ac(a2-6)Gal(b1-4)GlcNAc(b1-6)]GalNAc
# How it was run: as §1
# [8] = target: Neu5Ac(a2-6)Gal(b1-4)GlcNAc(b1-6)GalNAc
# How it was run: as §1
# [9] = target: Neu5Ac(a2-6)Gal(b1-4)GlcNAc(b1-6)[Gal(b1-3)GlcNAc(b1-3)]Gal(b1-4)Glc
# How it was run: as §1
# [10] = target: Neu5Ac(a2-6)Gal(b1-4)GlcNAc(b1-6)[Gal(b1-3)]GalNAc
# How it was run: as §1
# [11] = target: Neu5Ac(a2-6)Gal(b1-4)GlcNAc6S
# How it was run: as §1
# [12] = target: Neu5Ac(a2-6)GalNAc
# How it was run: as §1
# [13] = target: Neu5Ac(a2-6)GalNAc(b1-4)GlcNAc
# How it was run: as §1
# [14] = target: Neu5Ac(a2-6)GalNAc(b1-4)GlcNAc6S
# How it was run: as §1
# [15] = target: Neu5Ac(a2-6)GlcNAc(b1-4)GlcNAc
# How it was run: as §1
# [16] = target: Neu5Ac(a2-6)GlcNAc(b1-4)GlcNAc(b1-4)GlcNAc
# How it was run: as §1
# [17] = target: Neu5Ac(a2-8)Neu5Ac
# How it was run: as §1
# [18] = target: Neu5Ac(a2-8)Neu5Ac(a2-3)Gal(b1-3)GalNAc(b1-4)[Neu5Ac(a2-3)]Gal(b1-4)Glc
# How it was run: as §1
# [19] = target: Neu5Ac(a2-8)Neu5Ac(a2-3)Gal(b1-3)GalNAc(b1-4)[Neu5Ac(a2-8)Neu5Ac(a2-3)]Gal(b1-4)Glc
# How it was run: as §1
# [20] = target: Neu5Ac(a2-8)Neu5Ac(a2-3)Gal(b1-4)Glc
# How it was run: as §1
# [21] = target: Neu5Ac(a2-8)Neu5Ac(a2-3)Gal(b1-4)GlcNAc
# How it was run: as §1
# [22] = target: Neu5Ac(a2-8)Neu5Ac(a2-3)[Gal(b1-3)GalNAc(b1-4)]Gal(b1-4)Glc
# How it was run: as §1
# [23] = target: Neu5Ac(a2-8)Neu5Ac(a2-3)[GalNAc(b1-4)]Gal(b1-4)Glc
# How it was run: as §1
# [24] = target: Neu5Ac(a2-8)Neu5Ac(a2-8)Neu5Ac
# How it was run: as §1
# [25] = target: Neu5Ac(a2-8)Neu5Ac(a2-8)Neu5Ac(a2-3)Gal(b1-4)Glc
# How it was run: as §1
# [26] = target: Neu5Ac(a2-8)Neu5Ac(a2-8)Neu5Ac(a2-3)[Gal(b1-3)GalNAc(b1-4)]Gal(b1-4)Glc
# How it was run: as §1
# [27] = target: Neu5Ac(a2-8)Neu5Ac(a2-8)Neu5Ac(a2-3)[GalNAc(b1-4)]Gal(b1-4)Glc
# How it was run: as §1
# [28] = target: Neu5Ac(a2-8)Neu5Ac(a2-8)Neu5Ac(a2-8)Neu5Ac(a2-3)[GalNAc(b1-4)]Gal(b1-4)Glc
# How it was run: as §1
# [29] = target: Neu5Ac(a2-8)Neu5Gc(a2-3)Gal(b1-4)GlcNAc
# How it was run: as §1
# [30] = target: Neu5Ac(b2-6)Gal(b1-4)GlcNAc
# How it was run: as §1
# [31] = target: Neu5Ac(b2-6)GalNAc
# How it was run: as §1
# [32] = target: Neu5Ac9Ac(a2-3)Gal(b1-4)GlcNAc
# How it was run: as §1
# [33] = target: Neu5Ac9Ac(a2-6)Gal(b1-4)GlcNAc
# How it was run: as §1
# [34] = target: Neu5Gc(a2-3)Gal(b1-3)GlcNAc
# How it was run: as §1
# [35] = target: Neu5Gc(a2-3)Gal(b1-3)[Fuc(a1-4)]GlcNAc
# How it was run: as §1
# [36] = target: Neu5Gc(a2-3)Gal(b1-4)Glc
# How it was run: as §1
# [37] = target: Neu5Gc(a2-3)Gal(b1-4)GlcNAc
# How it was run: as §1
# [38] = target: Neu5Gc(a2-3)Gal(b1-4)GlcNAc(b1-3)Gal(b1-4)GlcNAc(b1-2)Man(a1-3)[Neu5Gc(a2-3)Gal(b1-4)GlcNAc(b1-3)Gal(b1-4)GlcNAc(b1-2)Man(a1-6)]Man(b1-4)GlcNAc(b1-4)GlcNAc
# How it was run: as §1
# [39] = target: Neu5Gc(a2-3)Gal(b1-4)[Fuc(a1-3)]GlcNAc
# How it was run: as §1
# [40] = target: Neu5Gc(a2-6)Gal(b1-4)GlcNAc
# How it was run: as §1
# [41] = target: Neu5Gc(a2-6)GalNAc
# How it was run: as §1
# [42] = target: Neu5Gc(a2-8)Neu5Ac(a2-3)Gal(b1-4)GlcNAc
# How it was run: as §1
# [43] = target: Neu5Gc(a2-8)Neu5Gc(a2-3)Gal(b1-4)GlcNAc
# How it was run: as §1
# [44] = target: Neu5Gc(a2-8)Neu5Gc(a2-3)Gal(b1-4)GlcNAc(b1-3)Gal(b1-4)GlcNAc
# How it was run: as §1
# [45] = target: Neu5Gc(a2-8)Neu5Gc(a2-6)Gal(b1-4)GlcNAc
# How it was run: as §1
# [46] = target: Neu5Gc(b2-6)Gal(b1-4)GlcNAc
# How it was run: as §1
binder,measurement,setting,value
B1,glycan array binding signal (z-score),[1],0.709
same,glycan array binding signal (z-score),[2],0.002
same,glycan array binding signal (z-score),[3],-0.839
same,glycan array binding signal (z-score),[4],-0.191
same,glycan array binding signal (z-score),[5],-0.258
same,glycan array binding signal (z-score),[6],0.356
same,glycan array binding signal (z-score),[7],-0.332
same,glycan array binding signal (z-score),[8],0.043
same,glycan array binding signal (z-score),[9],0.45
same,glycan array binding signal (z-score),[10],3.23
same,glycan array binding signal (z-score),[11],0.909
same,glycan array binding signal (z-score),[12],2.01
same,glycan array binding signal (z-score),[13],-0.534
same,glycan array binding signal (z-score),[14],0.493
same,glycan array binding signal (z-score),[15],-0.176
same,glycan array binding signal (z-score),[16],-0.141
same,glycan array binding signal (z-score),[17],0.598
same,glycan array binding signal (z-score),[18],0.055
same,glycan array binding signal (z-score),[19],0.05
same,glycan array binding signal (z-score),[20],-0.031
same,glycan array binding signal (z-score),[21],-0.425
same,glycan array binding signal (z-score),[22],-0.422
same,glycan array binding signal (z-score),[23],1
same,glycan array binding signal (z-score),[24],-0.186
same,glycan array binding signal (z-score),[25],0.179
same,glycan array binding signal (z-score),[26],-1.01
same,glycan array binding signal (z-score),[27],1.09
same,glycan array binding signal (z-score),[28],-0.01
same,glycan array binding signal (z-score),[29],-0.272
same,glycan array binding signal (z-score),[30],-0.701
same,glycan array binding signal (z-score),[31],-0.314
same,glycan array binding signal (z-score),[32],-0.013
same,glycan array binding signal (z-score),[33],-0.582
same,glycan array binding signal (z-score),[34],0.035
same,glycan array binding signal (z-score),[35],-0.495
same,glycan array binding signal (z-score),[36],-0.125
same,glycan array binding signal (z-score),[37],-0.047
same,glycan array binding signal (z-score),[38],1.53
same,glycan array binding signal (z-score),[39],-0.344
same,glycan array binding signal (z-score),[40],0.129
same,glycan array binding signal (z-score),[41],-0.3
same,glycan array binding signal (z-score),[42],0.067
same,glycan array binding signal (z-score),[43],-0.328
same,glycan array binding signal (z-score),[44],-0.129
same,glycan array binding signal (z-score),[45],0.181
same,glycan array binding signal (z-score),[46],-0.678

# As a short view, some entries already given.
binder,measurement,setting,value
B1,glycan array binding signal (z-score),[2],0.002
same,glycan array binding signal (z-score),[3],-0.839
same,glycan array binding signal (z-score),[4],-0.191
same,glycan array binding signal (z-score),[5],-0.258
same,glycan array binding signal (z-score),[6],0.356
same,glycan array binding signal (z-score),[7],-0.332
same,glycan array binding signal (z-score),[8],0.043
same,glycan array binding signal (z-score),[9],0.45
same,glycan array binding signal (z-score),[10],3.23
same,glycan array binding signal (z-score),[11],0.909
same,glycan array binding signal (z-score),[12],2.01
same,glycan array binding signal (z-score),[13],-0.534
